Laboratory results: PubChem BioAssay AID1259308 (NCATS, 2017)
This is one part, drawn at random, of about 59,000 deposited reagents. In the full data, about 1,510 (2.6%) got an active call. 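Calls use total luciferase alone and ignore viability, so some active siRNAs may act by altering cell number.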 The numbers tell different reagents against one gene apart. Further read-outs or replicates are left out here.

Screen: 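Candidate targets for better recombinant protein yield in mammalian cells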 (primary screen)
Cells: human HEK293 embryonic kidney cells stably expressing firefly luciferase (HEK-CMV-Luc2-Hygro)
Reagents: single siRNA against human genes, 0.8 pmol siRNA per well
Timing: 72 h
Read-out: 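Reporter luminescence and viable-cell signal on separate replicate plates, given as percent of non-targeting control and median/MAD z-scores, plus per-cell luciferase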
Direction: total luciferase, z-score: higher = more reporter protein produced
Rule for the call: 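Active when the median/MAD z-score for overall luciferase is greater than 3; a gene was taken forward for validation with new siRNAs if at least two of its three siRNAs passed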
Calls: active = raised luciferase; inactive = no rise

H2BC8 #1 → total luciferase, z-score = -0.431; call = inactive
H2BC8 #2 → total luciferase, z-score = -1.71; call = inactive
H2BC8 #3 → total luciferase, z-score = -0.552; call = inactive
KLF6 #1 → total luciferase, z-score = 4.51; call = active
KLF6 #2 → total luciferase, z-score = 0.429; call = inactive
KLF6 #3 → total luciferase, z-score = -1.15; call = inactive
NCAPG #1 → total luciferase, z-score = -0.0736; call = inactive
NCAPG #2 → total luciferase, z-score = -0.561; call = inactive
NCAPG #3 → total luciferase, z-score = -0.687; call = inactive
CTSW #1 → total luciferase, z-score = 1.39; call = inactive
CTSW #2 → total luciferase, z-score = -0.0699; call = inactive
CTSW #3 → total luciferase, z-score = -0.223; call = inactive
GCSH #1 → total luciferase, z-score = -0.648; call = inactive
GCSH #2 → total luciferase, z-score = -2.76; call = inactive
GCSH #3 → total luciferase, z-score = -0.62; call = inactive
FILIP1 #1 → total luciferase, z-score = -1.27; call = inactive
FILIP1 #2 → total luciferase, z-score = -0.298; call = inactive
FILIP1 #3 → total luciferase, z-score = 0.0824; call = inactive
HAO1 #1 → total luciferase, z-score = -0.231; call = inactive
HAO1 #2 → total luciferase, z-score = -0.252; call = inactive
HAO1 #3 → total luciferase, z-score = -0.585; call = inactive
